According to US5079231A (Ellem Industria Farmaceutica S.p.A., priority 1988, dated 1992):

experiment: general procedure: Boc solid-phase peptide synthesis; resins substituted with Boc-aminoacids; settings: whole synthesis

Substance	final HPLC purity
PEPTIDE1{R.A.R.R.K.E}$$$$V2.0	99.81%
PEPTIDE1{R.[dA].R.R.K.E}$$$$V2.0	99.1%
PEPTIDE1{R.A.R.R.K.E.R.A.R}$$$$V2.0	99.2%
PEPTIDE1{R.K.E.R.[dA].R}$$$$V2.0	99.2%
PEPTIDE1{R.K.E.R.A.R}$$$$V2.0	98,62%

Some peptides are written in HELM: one residue between dots, names in brackets for other building blocks, links after the first $.
